Patent publication US20220403431A1, “GLYCOMINIMIZED BACTERIAL HOST CELLS” (INBIOSE N.V., priority 2020, published 2022)
At least one structure is not confirmed: it was looked up by name or label, or the drawing left a doubt.

Tested on: glycominimized (GM) E. coli strain
Assay: Growth rate and MIC in minimal medium with increasing antibiotic concentrations, GM strain compared to WT strain
Assay type: cell-based, Escherichia coli K-12 MG1655
Details: for minimum inhibitory concentration (MIC), GM strain vs WT strain: MIC = lowest concentration where growth rate is less or equal than 10% of growth rate without antibiotic, both strains compared; for sensitivity of the GM strain to the antibiotic compared to the WT strain (relative specific growth rate, FIG. 1): minimal medium, increasing antibiotic concentrations, GM vs WT strain

SMILES	minimum inhibitory concentration (MIC), GM strain vs WT strain	sensitivity of the GM strain to the antibiotic compared to the WT strain (relative specific growth rate, FIG. 1)
NC[C@H]1O[C@H](O[C@H]2[C@H](O)[C@@H](O[C@H]3O[C@H](CO)[C@@H](O)[C@H](N)[C@H]3O)[C@H](N)C[C@@H]2N)[C@H](O)[C@@H](O)[C@@H]1O [kanamycin]	similar	similarly sensitive
CO[C@H]1/C=C/O[C@@]2(C)Oc3c(C)c(O)c4c(O)c(c(/C=N/N5CCN(C)CC5)c(O)c4c3C2=O)NC(=O)/C(C)=C\C=C\[C@H](C)[C@H](O)[C@@H](C)[C@@H](O)[C@@H](C)[C@H](OC(C)=O)[C@@H]1C [rifampicin]	similar	similarly sensitive
